# Test results: PubChem BioAssay AID248 (DTP/NCI, 2004)
# The list is a part of this screen's results and no random one: it is rich in T/C values a quarter to a half above the control, in often repeated tests (any T/C) and in doses without a T/C. Other doses and runs of a compound stand elsewhere. T/C gives the treated animals as a percentage of the vehicle group. Some doses have a count of surviving animals in place of a T/C: the source holds a T/C of zero for them, seemingly a mark for toxic or unscored doses. Some survivor counts are full or nearly so, which does not show that the dose was tolerated: the source hardly ever lists a survival T/C far under the control, and the zero likely stands for such cases as well. Survivors were counted at the toxicity check, usually on the fifth day, unless a day is given; later deaths do not show. Schedule codes are those of the source, taken here to give the interval after Q, in days (D) or hours (H), and the number of doses after X. Some schedules carry Z or #; the key to these is not given. Where survival is the endpoint, the PubChem record calls one and a half times the control and up active, and a quarter to a half above the control has no call in these data; cut-offs in other NCI protocols can differ. Some doses were run more than once; their values stand side by side, smallest first.
# Test system: L1210 leukemia ip in BDF1 mice, survival T/C
# Assay: NCI In Vivo Anticancer Drug Screen. Data for tumor model L1210 Leukemia (intraperitoneal) in B6D2F1 (BDF1) mice
# Conditions: T/C endpoint: mean survival time, higher T/C = longer survival
# [1] = dose: 400.0 mg/kg/injection, schedule: Q04DX003 (ip), vehicle: saline
# [2] = dose: 300.0 mg/kg/injection, schedule: Q01DX001 (ip), vehicle: other
structure (smiles),measurement,setting,value
N#Cc1cn(C2OC(CO)C(O)C2O)c2ncnc(N)c12 (centres undefined),survivor count,"dose: 0.19 mg/kg/injection, schedule: Q01DX009 (ip), vehicle: saline",5 of 6
same,survivor count,"dose: 0.39 mg/kg/injection, schedule: Q01DX005 (ip), vehicle: saline",6 of 6
same,survivor count,"dose: 0.78 mg/kg/injection, schedule: Q01DX005 (ip), vehicle: saline",5 of 6
same,survivor count,"dose: 1.56 mg/kg/injection, schedule: Q01DX005 (ip), vehicle: saline",4 of 6
same,survivor count,"dose: 3.12 mg/kg/injection, schedule: Q01DX005 (ip), vehicle: saline",1 of 6
same,survivor count,"dose: 6.25 mg/kg/injection, schedule: Q01DX005 (ip), vehicle: saline",0 of 6
same,survivor count,"dose: 12.5 mg/kg/injection, schedule: Q01DX005 (ip), vehicle: saline",0 of 6
same,survivor count,"dose: 25.0 mg/kg/injection, schedule: Q01DX005 (ip), vehicle: saline",0 of 6
same,survivor count,"dose: 50.0 mg/kg/injection, schedule: Q01DX005 (ip), vehicle: saline",0 of 6
same,survivor count,"dose: 100.0 mg/kg/injection, schedule: Q01DX005 (ip), vehicle: saline",0 of 6
same,survivor count,"dose: 200.0 mg/kg/injection, schedule: Q01DX005 (ip), vehicle: saline",0 of 6
CC(=O)NN=C(C)C,survivor count,"dose: 100.0 mg/kg/injection, schedule: Q01DX009 (ip), vehicle: saline",2 of 6
same,survivor count,"dose: 200.0 mg/kg/injection, schedule: Q01DX009 (ip), vehicle: saline",3 of 6
same,survivor count,[1],3 of 6
COC(=O)/C=C\C(=O)O (tested in a mixture with another compound),survivor count,"dose: 62.5 mg/kg/injection, schedule: Q#A X Z (ip), vehicle: carboxymethylcellulose (CMC)",1 of 6
same,survivor count,"dose: 125.0 mg/kg/injection, schedule: Q#A X Z (ip), vehicle: carboxymethylcellulose (CMC)",0 of 6
same,survivor count,"dose: 250.0 mg/kg/injection, schedule: Q#A X Z (ip), vehicle: carboxymethylcellulose (CMC)",0 of 6
O=NN(CCCl)C(=O)N[C@H]1CCC[C@@H](C(=O)O)C1,T/C,"dose: 8.0 mg/kg/injection, schedule: Q01DX001 (ip), vehicle: Klucel (hydroxypropylcellulose) (HPC)",132 % of control
same,T/C,"dose: 12.0 mg/kg/injection, schedule: Q01DX001 (ip), vehicle: Klucel (hydroxypropylcellulose) (HPC)",145 % of control
same,survivor count,"dose: 90.0 mg/kg/injection, schedule: Q01DX001 (ip), vehicle: Klucel (hydroxypropylcellulose) (HPC)",8 of 10
same,survivor count,"dose: 133.0 mg/kg/injection, schedule: Q01DX001 (ip), vehicle: Klucel (hydroxypropylcellulose) (HPC)",10 of 10
same,survivor count,"dose: 200.0 mg/kg/injection, schedule: Q01DX001 (ip), vehicle: Klucel (hydroxypropylcellulose) (HPC)",9 of 10
Cc1cc(S(=O)(=O)F)ccc1NC(=O)/C=C/c1ccc([N+](=O)[O-])cc1,survivor count,"dose: 200.0 mg/kg/injection, schedule: Q01DX009 (ip), vehicle: Klucel (hydroxypropylcellulose) (HPC)",6 of 6
CCN(CC)CCC(C=NCC(CCN(CC)CC)(c1cccc2ccccc12)C(C)C)(c1cccc2ccccc12)C(C)C (centres undefined),survivor count,"dose: 6.25 mg/kg/injection, schedule: Q04DX002 (ip), vehicle: saline + alcohol",3 of 3
same,survivor count,"dose: 50.0 mg/kg/injection, schedule: Q04DX002 (ip), vehicle: saline with Tween-80",2 of 3
same,survivor count,"dose: 100.0 mg/kg/injection, schedule: Q04DX002 (ip), vehicle: saline + alcohol",3 of 3
same,survivor count,"dose: 100.0 mg/kg/injection, schedule: Q04DX002 (ip), vehicle: saline with Tween-80",0 of 3
same,survivor count,"dose: 200.0 mg/kg/injection, schedule: Q04DX002 (ip), vehicle: saline + alcohol",1 of 3
same,survivor count,"dose: 400.0 mg/kg/injection, schedule: Q04DX002 (ip), vehicle: saline + alcohol",2 of 3
Cc1ccc(Sc2cccc3c2C(=O)c2c(Sc4ccc(C)cc4)cccc2C3(Br)c2ccccc2)cc1,survivor count,"dose: 200.0 mg/kg/injection, schedule: Q01DX009 (ip), vehicle: saline with Tween-80",5 of 6
CSc1cc(-c2ccc(Cl)cc2)s[s+]1,survivor count,"dose: 100.0 mg/kg/injection, schedule: Q01DX009 (ip), vehicle: saline with Tween-80",2 of 6
same,survivor count,"dose: 200.0 mg/kg/injection, schedule: Q04DX003 (ip), vehicle: saline with Tween-80",0 of 6
same,survivor count,"dose: 400.0 mg/kg/injection, schedule: Q04DX003 (ip), vehicle: saline with Tween-80",1 of 6
CCCCCCCCCC(=O)CCCCCCC,survivor count,"dose: 200.0 mg/kg/injection, schedule: Q01DX009 (ip), vehicle: other",6 of 6
CCCCCc1ccc(C)cc1OC(=O)CCl,survivor count,"dose: 94.0 mg/kg/injection, schedule: Q01DX Z (ip), vehicle: methylcellulose (MC)",3 of 6
Cc1[nH]nc2c(=O)[nH]c3ccccc3c12,survivor count,"dose: 75.0 mg/kg/injection, schedule: Q01DX001 (ip), vehicle: Klucel (hydroxypropylcellulose) (HPC)",6 of 6
Nc1nc(N)nc(COc2ccccc2Cl)n1,survivor count,"dose: 400.0 mg/kg/injection, schedule: Q04DX002 (ip), vehicle: Klucel (hydroxypropylcellulose) (HPC)",3 of 3
O=C(Nc1ccc(C2=NCCN2)cc1)c1ccc2cc(C(=O)Nc3ccc(C4=NCCN4)cc3)ccc2c1,T/C,"dose: 15.0 mg/kg/injection, schedule: Q01DX Z (ip), vehicle: carboxymethylcellulose (CMC)",125 % of control
same,T/C,"dose: 30.0 mg/kg/injection, schedule: Q01DX Z (ip), vehicle: carboxymethylcellulose (CMC)",127 and 135 % of control
same,T/C,"dose: 60.0 mg/kg/injection, schedule: Q01DX Z (ip), vehicle: carboxymethylcellulose (CMC)",125 and 135 % of control
same,T/C,"dose: 120.0 mg/kg/injection, schedule: Q01DX Z (ip), vehicle: carboxymethylcellulose (CMC)",141 % of control
CCOC(=O)C(C#N)=C(C)C,survivor count,"dose: 150.0 mg/kg/injection, schedule: Q01DX001 (ip), vehicle: other",2 of 6
same,survivor count,"dose: 200.0 mg/kg/injection, schedule: Q01DX001 (ip), vehicle: saline",1 of 4
same,survivor count,[2],0 of 6
same,survivor count,"dose: 400.0 mg/kg/injection, schedule: Q01DX001 (ip), vehicle: saline",0 of 4
same,survivor count,[1],0 of 3
CCCCCCCCCCCCCCCC(=O)Nc1ccc(C(=O)C[n+]2ccc3c(NC(=O)CCC(=O)OC)cccc3c2)cc1,survivor count,[2],6 of 6
O=P(Oc1ccc(OP(=O)(N2CC2)N2CC2)cc1)(N1CC1)N1CC1,T/C,"dose: 32.0 mg/kg/injection, schedule: Q01DX009 (ip), vehicle: saline",141 % of control
same,T/C,"dose: 75.0 mg/kg/injection, schedule: Q01DX001 (ip), vehicle: saline",133 % of control
same,T/C,"dose: 150.0 mg/kg/injection, schedule: Q01DX001 (ip), vehicle: saline",133 % of control
Nc1nc(-c2ccccc2)c(CCCCc2ccccc2)c(=O)[nH]1,survivor count,"dose: 100.0 mg/kg/injection, schedule: Q01DX Z (ip), vehicle: carboxymethylcellulose (CMC)",6 of 6
same,survivor count,"dose: 400.0 mg/kg/injection, schedule: Q01DX Z (ip), vehicle: carboxymethylcellulose (CMC)",6 of 6
CNc1nc(SCc2ccccc2)c2ncn(C3OC(CO)C(O)C3O)c2n1 (centres undefined),survivor count,"dose: 400.0 mg/kg/injection, schedule: Q01DX001 (ip), vehicle: carboxymethylcellulose (CMC)",0 of 4
O=C1C=CC(=O)N1c1ccc(F)cc1,survivor count,"dose: 50.0 mg/kg/injection, schedule: Q04DX003 (ip), vehicle: saline with Tween-80",1 of 6
same,survivor count,"dose: 100.0 mg/kg/injection, schedule: Q04DX003 (ip), vehicle: saline with Tween-80",0 of 6
C/C(CCO)=N/N=C(N)N,survivor count,"dose: 60.0 mg/kg/injection, schedule: Q01DX Z (ip), vehicle: methylcellulose (MC)",4 of 6
same,survivor count,"dose: 120.0 mg/kg/injection, schedule: Q01DX Z (ip), vehicle: methylcellulose (MC)",1 of 6
same,survivor count,"dose: 120.0 mg/kg/injection, schedule: Q01DX Z (oral), vehicle: methylcellulose (MC)",4 of 6
same,survivor count,"dose: 240.0 mg/kg/injection, schedule: Q01DX Z (oral), vehicle: methylcellulose (MC)",4 of 6
O=c1nccc[nH]1,survivor count,[1],4 of 6
NC(N)=NN=C(c1ccc(F)cc1)c1ccc(F)cc1,survivor count,"dose: 16.0 mg/kg/injection, schedule: Q01DX Z (oral), vehicle: carboxymethylcellulose (CMC)",0 of 6
same,T/C,"dose: 20.0 mg/kg/injection, schedule: Q01DX001 (ip), vehicle: carboxymethylcellulose (CMC)",125 % of control
same,survivor count,"dose: 32.0 mg/kg/injection, schedule: Q01DX Z (oral), vehicle: carboxymethylcellulose (CMC)",1 of 6
same,survivor count,"dose: 40.0 mg/kg/injection, schedule: Q01DX001 (ip), vehicle: carboxymethylcellulose (CMC)",2 of 6
